The list shows a part of the results. Shown are side measurements of this screen, not its main read-out; they come without a call. Compounds called inactive in the main read-out are mostly missing here. Words in brackets tell the shape of the fitted curve; partial curves, single points and poor fits give uncertain potencies.

The nature of the experiment: qHTS Assay for Lipid Storage Modulators in Drosophila S3 Cells.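 On cell number change: cells counted by Cell Tracker Red CMTPX staining in the red channel.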 To be noted: BODIPY lipid droplet fluorescence, 18-24 h; for cell number change: measured here: cell count max response, cells fed with added oleic acid. The method, boiled down: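 Drosophila S3 cells loaded with oleic acid (400 uM, as added) and compounds at several concentrations; lipid droplets imaged by 488-nm laser-scanning cytometry, 500–530 nm intensity and object ratio to cell channel. Percent activity normalized to 20 uM Triacsin C.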
Background: qHTS replaces the single test concentration by a dilution series.

Setting [1] is: measured here: cell number channel AC50, cells fed with added oleic acid.
[2] abbreviates: measured here: lipid fluorescence (Fed channel) AC50, cells fed with added oleic acid.

The AC50 is the concentration at which the activity in the assay is half-maximal. As for `COc1ccc(NC(=O)CN(C)C(=O)c2cc(CN3C(=O)c4ccccc4C3=O)ccc2OC)cc1`, the cell number change amounted to 42.1%. Further, the half-maximal activity concentration (AC50) under setting [1] is 7.31 µM [rising, partial curve]. The AC50 under setting [2] is 29.1 µM [rising, single point].
Turning to `COc1ccccc1CNS(=O)(=O)c1c(C)nc2scc(C)n2c1=O`, the cell number change was 5.65%. Besides, the AC50 under setting [2] is 29.1 µM [falling, single point].
`COc1ccc(C(=O)Nc2ccc([N+](=O)[O-])cn2)cc1OC`: the cell number change was -50%. Moreover, the AC50 under setting [1] is 29.1 µM [falling, single point]. For the same molecule, under setting [2], the concentration at half-maximal activity (AC50) was 5.8 µM [rising, partial curve].
For `CC1CCCC(C)N1S(=O)(=O)c1ccc(NC(=O)CCN2C(=O)C3CC=CCC3C2=O)cc1` (stereo unspecified), the cell number change is 49%. The AC50 under setting [1] is 16.4 µM [rising, single point].
As for `Cc1cc(C)n2cc(CSc3nnnn3-c3ccccc3)nc2n1`, the cell number change was -3.5%. The AC50 under setting [2] is 1.3 µM [rising, partial curve].
As to `COc1ccc(S(=O)(=O)Nc2ccc(Cl)cn2)c(C)c1C`, the cell number change stood at 88.1%. Further, under setting [2], the half-maximal activity concentration (AC50) was 6.51 µM [falling, single point].
In the case of `CC1OC(O[C@H]2CC[C@]3(C)C4C=C[C@]56OC[C@@]7(CC[C@@H](C)[C@H](C)C75)[C@H](O)C[C@@]6(C)[C@]4(C)CC[C@H]3C2(C)C)C(OC2OC(CO)C(O)C(O)C2OC2OCC(O)C(O)C2O)C(O)C1O` (stereo partly specified), the cell number change is -18.8%.
On to `CCN(C(=O)COC(=O)c1cccnc1SC)c1c(N)n(Cc2ccccc2)c(=O)[nH]c1=O`, for which the cell number change is -65.6%. The AC50 under setting [2] is 18.4 µM [falling, partial curve].
For the molecule `Cc1cc(C)c(C)c(S(=O)(=O)NCc2ccco2)c1C`, the cell number change is -29.6%. Under setting [1], the AC50 is 0.184 µM [falling, full curve, poor fit]. The AC50 under setting [2] was 0.82 µM [falling, full curve].
For the molecule `CCOC(=O)N1CCC(NC(=O)CS(=O)(=O)Cc2nc(-c3ccc(C)cc3)oc2C)CC1`, the cell number change stood at 29.5%. Further, under setting [2], the AC50 was 20.6 µM [rising, partial curve, poor fit].
Take `CC(=O)N1C(C)c2ccccc2C(C)(C)CC12CCCCC2` (stereo unspecified): the cell number change is -25.6%. Also, the AC50 under setting [2] was 29.1 µM [falling, single point].
With `COCCN(C(=O)COC(=O)c1ccc(C)o1)c1c(N)n(Cc2ccccc2)c(=O)[nH]c1=O`, the cell number change was -3.21%.
As for `Cc1ccccc1C(=O)NC(=S)Nc1ccc(N2CCN(C(=O)c3ccccc3)CC2)cc1`, the cell number change came to 4.09%. Moreover, the AC50 under setting [2] is 2.31 µM [falling, single point].
With `O=C(NCCCN1CCCC1=O)c1cccs1`, the cell number change is -0.728%.
With `COc1ccccc1CNS(=O)(=O)c1c(C)[nH]c(C)c1C(=O)N1CCCCC1`, the AC50 under setting [2] is 29.1 µM [falling, single point].
On the same count and under the same terms, in the case of `CCN(CC)C(=O)C[n+]1cccc(/C=N/O)c1` it was 18.4 µM [rising, single point].
With `O=C(Nc1ccncc1)c1ccc(-c2ccccc2)cc1`, the cell number change was -54.7%. Moreover, the AC50 under setting [1] was 11.6 µM [falling, partial curve]. The AC50 under setting [2] is 13 µM [falling, partial curve].
As for `O=C(N[C@@H](c1ccccc1)[C@@H]1C[C@H]1C(=O)NCc1ccccn1)OCc1ccccc1`, the cell number change came to 16.1%. The concentration at half-maximal activity (AC50) under setting [2] is 29.1 µM [rising, single point].
`CCOC(=O)c1sc2nc(C)nc(N3CCN(c4ncccn4)CC3)c2c1C`: the cell number change is -20.6%. The AC50 under setting [1] is 0.291 µM [falling, single point]. In addition, under setting [2], the AC50 was 2.91 µM [falling, full curve].
As to `COc1cccc(CN(C(=O)Cn2nnc(-c3ccccc3F)n2)C(C(=O)NC(C)(C)C)c2ccncc2)c1` (stereo unspecified), the cell number change was determined as 2.46%. In addition, the AC50 under setting [2] was 29.1 µM [falling, single point].
Regarding `NC(=O)C1CCN(C(=O)CNC(=O)c2ccccc2)CC1`, the cell number change is 21.4%. For the same molecule, under setting [2], the AC50 was 16.4 µM [rising, single point].
As for `O=C(O)C(F)(F)C(NCc1ccccc1)c1ccccc1` (stereo unspecified), the cell number change was -8.65%. For the same molecule, the AC50 under setting [2] was 23.1 µM [falling, partial curve, poor fit].
`Cc1c(Cl)cccc1NC(=O)C1CCN(S(C)(=O)=O)CC1`: the cell number change is -11.1%. Also, the concentration at half-maximal activity (AC50) under setting [2] is 7.31 µM [falling, single point].
Take `COc1ccc(N2C(=O)CC(N3CCN(c4nc5ccccc5s4)CC3)C2=O)cc1` (stereo unspecified): the cell number change is 24.7%. Also, the AC50 under setting [2] was 29.1 µM [rising, single point].
For the molecule `C=CCC(O)(CCN1CCCCC1)c1ccccc1` (stereo unspecified), the cell number change was 8.77%. For the same molecule, the AC50 under setting [2] was 8.2 µM [rising, partial curve].
As to `Cc1[nH]c(=O)[nH]c(=O)c1NC(=O)c1ccc(OC(C)C)cc1`, the cell number change came out at 26.5%. In addition, under setting [2], the half-maximal activity concentration (AC50) was 16.4 µM [rising, partial curve, poor fit].
Take `Cc1ccc(C)c(OCc2cc(C(=O)N3CCN(c4cnccn4)CC3)no2)c1`: the cell number change was -0.289%.
The same measure, in the same setting: in the case of `COc1ccc(C(C(=O)NCC2CCCO2)N(C(=O)c2snc(C(N)=O)c2N)c2ccccc2C)cc1OC` (stereo unspecified) it was 2.17%.
Turning to `COc1ccccc1-c1cc(C(F)(F)F)nc(S(=O)(=O)CCCC(=O)N2CCOCC2)n1`, the cell number change is -73.7%. The AC50 under setting [1] is 29.1 µM [falling, single point]. The AC50 under setting [2] is 18.4 µM [falling, partial curve].
With `CCS(=O)(=O)N1CCC(c2nc3ccccc3[nH]2)CC1`, the cell number change was -1.83%. Moreover, under setting [2], the AC50 was 0.58 µM [rising, single point].
Consider `OCCNc1nc2ccccc2n1CCN1CCCCC1`, for which the cell number change came out at 18.4%. Moreover, the AC50 under setting [2] was 29.1 µM [rising, single point].
As to `Cc1ccc(S(=O)(=O)CC2CSc3nnc(C)c(=O)n32)cc1` (stereo unspecified), the cell number change turned out to be 11.6%. The AC50 under setting [2] was 11.6 µM [falling, partial curve].
With `COc1ccc(OC)c(N(CC(=O)NCc2ccccc2)S(=O)(=O)c2ccc(OC)c(OC)c2)c1`, the cell number change was -13%. Besides, under setting [2], the AC50 was 18.4 µM [rising, single point].
Consider `COc1ccc(C2/C=C\CN(C(=O)NC(C)C)CC(=O)N2Cc2ccc(F)cc2)cc1` (stereo unspecified), for which the cell number change was determined as 18.6%. The AC50 under setting [2] is 0.82 µM [rising, full curve, poor fit].
Take `CC[C@H]1CN2CCc3cc(OC)c(OC)cc3[C@@H]2C[C@@H]1C[C@H]1NCCc2cc(OC)c(OC)cc21`: the cell number change is -31.1%. Moreover, under setting [1], the concentration at half-maximal activity (AC50) is 0.326 µM [falling, full curve]. Further, the AC50 under setting [2] was 10.3 µM [falling, partial curve].
Take `CN(C)S(=O)(=O)c1cccc(COC(=O)CCNC(=O)c2ccc([N+](=O)[O-])cc2)c1`: the AC50 under setting [2] was 20.6 µM [falling, single point].

For the origin of these results see PubChem BioAssay AID2685 (National Center for Advancing Translational Sciences (NCATS), 2010).
